Measured data: PubChem BioAssay AID652243 (Drosophila RNAi Screening Center, 2013)

Purpose: 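Fly regulators of androgen-dependent reporter output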 (primary screen)
System: Drosophila S2R+ cells
Reagents: long dsRNA against Drosophila genes
Duration: 72 h (48 h, then 24 h hormone)
Conditions: synthetic androgen R1881 at 10 nM for 24 h
Measurement: 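Per-well raw luminescence of the androgen-driven firefly reporter and of the Renilla control, two replicates each, without normalisation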
Reading the numbers: firefly reporter light: higher = more light from androgen-responsive reporter; Renilla control light: higher = more constitutive control signal (cell number, transfection)
Hit rule: 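Hit when the log firefly-to-Renilla ratio dropped or increased by a fixed fold versus the mean of GFP or LacZ controls across duplicate plates; lowering cut given as 1.5 and as 3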
Calls: active = hit: reporter lowered or raised; inactive = no hit
In all, the deposit lists about 24,000 reagents; below is a random part of those with a known target gene and a result. Over the whole deposit, 246 (1%) were called active. 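Plates not normalised; calls are printed but the firefly/Renilla ratio behind them is not deposited; fold cut for lowering reported inconsistently.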 Raw values are not corrected between plates. Names joined by + are all predicted targets of the reagent. No sequences are given here. The record does not give: the amount of reagent.

| gene | dsRNA | firefly reporter light, replicate 1 | firefly reporter light, replicate 2 | Renilla control light, replicate 1 | Renilla control light, replicate 2 | activity call |
| --- | --- | --- | --- | --- | --- | --- |
| Serinc (GeneID 39827) | DRSC11296 | 24821 | 22361 | 2.58e5 | 1.47e5 | inactive |
| Tango5 (GeneID 326232) | DRSC18023 | 1.48e5 | 1.50e5 | 7.76e5 | 8.66e5 | inactive |
| Tango5 (GeneID 326232) | DRSC25500 | 1.25e6 | 1.54e6 | 1.65e6 | 1.96e6 | inactive |
| CCT3 (GeneID 42029) | DRSC16602 | 47132 | 20346 | 3.81e5 | 2.85e5 | inactive |
| Aasdh (GeneID 34175) | DRSC03467 | 1.23e5 | 1.72e5 | 1.05e6 | 1.11e6 | inactive |
| CG8785 (GeneID 36391) | DRSC07266 | 1.06e6 | 1.16e6 | 1.10e6 | 1.53e6 | inactive |
| Urm1 (GeneID 2768949) | DRSC22941 | 5.61e5 | 8.81e5 | 6.01e5 | 1.14e6 | inactive |
| Urm1 (GeneID 2768949) | DRSC29463 | 4.20e5 | 4.16e5 | 1.97e6 | 1.97e6 | active |
| Urm1 (GeneID 2768949) | DRSC39097 | 4.42e5 | 3.72e5 | 1.16e6 | 1.14e6 | inactive |
| CG13699 (GeneID 40008) | DRSC10048 | 1.71e5 | 1.32e5 | 1.88e6 | 1.89e6 | inactive |
| CG13699 (GeneID 40008) | DRSC26349 | 2.93e5 | 3.42e5 | 7.28e5 | 7.02e5 | inactive |
| nrv3 (GeneID 35408) | DRSC03097 | 3.91e5 | 3.43e5 | 2.76e6 | 3.27e6 | inactive |
| CR31824 (GeneID 10178848) | DRSC01517 | 1.47e5 | 1.65e5 | 3.16e5 | 5.05e5 | inactive |
| CR31824 (GeneID 10178848) | DRSC29841 | 5.43e5 | 3.69e5 | 1.23e6 | 1.34e6 | inactive |
| asRNA:CR30267 (GeneID 12798141) | DRSC21628 | 8.35e5 | 7.48e5 | 2.64e6 | 2.12e6 | inactive |
| Prosalpha3T (GeneID 43679) | DRSC15226 | 1.40e5 | 1.37e5 | 2.35e6 | 2.58e6 | inactive |
| thetaTry (GeneID 36218) | DRSC07705 | 2.92e5 | 1.80e5 | 1.57e6 | 1.16e6 | inactive |
| thetaTry (GeneID 36218) | DRSC29830 | 5.18e5 | 5.01e5 | 1.55e6 | 1.98e6 | inactive |
| CG5089 (GeneID 36859) | DRSC06914 | 1.26e6 | 8.29e5 | 1.96e6 | 1.13e6 | inactive |
| CG5089 (GeneID 36859) | DRSC30089 | 9.27e5 | 8.74e5 | 1.01e6 | 8.42e5 | inactive |
| mtSSB (GeneID 41968) | DRSC17005 | 2.26e5 | 2.12e5 | 2.75e6 | 2.95e6 | inactive |
| CG13609 (GeneID 42883) | DRSC14612 | 1.61e5 | 2.13e5 | 2.17e6 | 2.61e6 | inactive |
| CG13609 (GeneID 42883) | DRSC22843 | 5.87e5 | 1.29e6 | 1.28e6 | 2.10e6 | inactive |
| Aatf (GeneID 33943) | DRSC02131 | 1.58e5 | 1.61e5 | 1.62e6 | 1.47e6 | inactive |
| Aatf (GeneID 33943) | DRSC29405 | 6.39e5 | 7.16e5 | 1.01e6 | 1.01e6 | inactive |
| kek6 (GeneID 43729) | DRSC15299 | 31875 | 66710 | 1.10e6 | 1.56e6 | inactive |
| kek6 (GeneID 43729) | DRSC23759 | 5.63e5 | 3.89e5 | 6.32e5 | 6.23e5 | inactive |
| scpr-A + scpr-C | DRSC15737 | 99609 | 1.07e5 | 2.07e6 | 2.21e6 | inactive |
| CG13380 + CG4174 | DRSC09988 | 76871 | 57259 | 8.53e5 | 6.22e5 | inactive |
| CG13380 + CG4174 | DRSC10406 | 2.44e5 | 1.40e5 | 2.04e6 | 2.19e6 | inactive |
| Drl-2 (GeneID 36436) | DRSC05393 | 73248 | 1.01e5 | 3.71e5 | 4.00e5 | inactive |
| Drl-2 (GeneID 36436) | DRSC06155 | 5.33e5 | 2.93e5 | 2.17e6 | 2.18e6 | inactive |
| Drl-2 (GeneID 36436) | DRSC06858 | 3.52e5 | 2.57e5 | 1.92e6 | 1.94e6 | inactive |
| Drl-2 (GeneID 36436) | DRSC36862 | – | – | – | – | inactive |
| Drl-2 (GeneID 36436) | DRSC36863 | – | – | – | – | inactive |
| Tep3 (GeneID 34045) | DRSC03452 | 2.20e5 | 1.89e5 | 1.74e6 | 1.38e6 | inactive |
| Amnionless (GeneID 33199) | DRSC00317 | 1.23e5 | 1.37e5 | 6.86e5 | 6.61e5 | inactive |
| CG13054 (GeneID 39780) | DRSC09935 | 1.59e5 | 1.56e5 | 1.80e6 | 1.69e6 | inactive |
| CG13054 (GeneID 39780) | DRSC29594 | 3.84e5 | 2.57e5 | 9.33e5 | 9.33e5 | inactive |
| Crk (GeneID 43775) | DRSC17163 | 1.17e5 | 1.40e5 | 1.47e6 | 1.07e6 | inactive |

Reagents above marked active, once more:
| gene | dsRNA | firefly reporter light, replicate 1 | firefly reporter light, replicate 2 | Renilla control light, replicate 1 | Renilla control light, replicate 2 | activity call |
| --- | --- | --- | --- | --- | --- | --- |
| Urm1 (GeneID 2768949) | DRSC29463 | 4.20e5 | 4.16e5 | 1.97e6 | 1.97e6 | active |
